Measured values taken from the supplement of paper PMC12819154, “High-throughput peptide-centric local stability assay extends protein–ligand identification to membrane proteins, tissues and bacteria” (Nature Structural & Molecular Biology, 2025).
Some of the results follow. Small differences around the control level are noise.

Sequences of proteins named here, by UniProt entry; tags and fusion partners are left off. A change or cut given only in a name is not applied to a line headed by its entry.
UniProt Q01844: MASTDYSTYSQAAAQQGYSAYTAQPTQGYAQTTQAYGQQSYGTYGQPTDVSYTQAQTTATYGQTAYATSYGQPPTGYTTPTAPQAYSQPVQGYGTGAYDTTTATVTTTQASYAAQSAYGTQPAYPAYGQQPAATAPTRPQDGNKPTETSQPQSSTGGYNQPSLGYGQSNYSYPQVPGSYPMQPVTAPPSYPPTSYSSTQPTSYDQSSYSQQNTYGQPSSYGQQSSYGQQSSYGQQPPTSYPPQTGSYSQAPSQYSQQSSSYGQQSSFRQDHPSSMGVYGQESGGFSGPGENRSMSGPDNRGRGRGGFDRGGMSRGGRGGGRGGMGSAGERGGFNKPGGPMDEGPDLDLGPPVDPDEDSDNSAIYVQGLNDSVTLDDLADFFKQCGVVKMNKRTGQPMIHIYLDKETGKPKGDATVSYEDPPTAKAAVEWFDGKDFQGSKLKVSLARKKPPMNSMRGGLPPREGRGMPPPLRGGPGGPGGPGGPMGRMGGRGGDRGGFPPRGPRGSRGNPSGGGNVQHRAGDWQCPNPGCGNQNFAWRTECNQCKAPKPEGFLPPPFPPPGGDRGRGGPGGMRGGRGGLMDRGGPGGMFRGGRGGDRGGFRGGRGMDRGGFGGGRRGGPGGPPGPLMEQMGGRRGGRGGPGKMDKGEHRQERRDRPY
UniProt Q03013: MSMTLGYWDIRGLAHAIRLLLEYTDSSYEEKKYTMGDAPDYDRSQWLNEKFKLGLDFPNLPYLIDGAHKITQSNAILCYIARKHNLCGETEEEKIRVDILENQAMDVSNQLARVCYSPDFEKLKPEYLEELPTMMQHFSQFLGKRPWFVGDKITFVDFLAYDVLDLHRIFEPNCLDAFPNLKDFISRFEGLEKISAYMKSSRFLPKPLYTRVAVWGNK
UniProt Q13153, whole entry: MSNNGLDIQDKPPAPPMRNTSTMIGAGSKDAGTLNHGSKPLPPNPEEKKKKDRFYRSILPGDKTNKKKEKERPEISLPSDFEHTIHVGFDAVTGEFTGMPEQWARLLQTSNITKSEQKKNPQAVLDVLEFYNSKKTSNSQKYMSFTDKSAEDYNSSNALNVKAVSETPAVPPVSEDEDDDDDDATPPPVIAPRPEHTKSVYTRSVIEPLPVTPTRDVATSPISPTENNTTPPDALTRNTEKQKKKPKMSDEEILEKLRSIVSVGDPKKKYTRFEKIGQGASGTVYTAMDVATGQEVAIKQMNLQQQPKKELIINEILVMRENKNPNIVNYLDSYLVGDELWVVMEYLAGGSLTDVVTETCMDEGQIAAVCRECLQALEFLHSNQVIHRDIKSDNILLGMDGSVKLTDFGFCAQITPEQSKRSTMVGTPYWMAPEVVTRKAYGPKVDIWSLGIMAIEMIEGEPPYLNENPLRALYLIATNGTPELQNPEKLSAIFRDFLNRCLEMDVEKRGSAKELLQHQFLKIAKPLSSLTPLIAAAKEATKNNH
UniProt Q12798: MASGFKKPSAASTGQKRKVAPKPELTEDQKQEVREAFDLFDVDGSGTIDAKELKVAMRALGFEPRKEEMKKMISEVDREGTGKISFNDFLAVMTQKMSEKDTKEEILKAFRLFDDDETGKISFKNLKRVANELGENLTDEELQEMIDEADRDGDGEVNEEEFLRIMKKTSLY
UniProt Q00610: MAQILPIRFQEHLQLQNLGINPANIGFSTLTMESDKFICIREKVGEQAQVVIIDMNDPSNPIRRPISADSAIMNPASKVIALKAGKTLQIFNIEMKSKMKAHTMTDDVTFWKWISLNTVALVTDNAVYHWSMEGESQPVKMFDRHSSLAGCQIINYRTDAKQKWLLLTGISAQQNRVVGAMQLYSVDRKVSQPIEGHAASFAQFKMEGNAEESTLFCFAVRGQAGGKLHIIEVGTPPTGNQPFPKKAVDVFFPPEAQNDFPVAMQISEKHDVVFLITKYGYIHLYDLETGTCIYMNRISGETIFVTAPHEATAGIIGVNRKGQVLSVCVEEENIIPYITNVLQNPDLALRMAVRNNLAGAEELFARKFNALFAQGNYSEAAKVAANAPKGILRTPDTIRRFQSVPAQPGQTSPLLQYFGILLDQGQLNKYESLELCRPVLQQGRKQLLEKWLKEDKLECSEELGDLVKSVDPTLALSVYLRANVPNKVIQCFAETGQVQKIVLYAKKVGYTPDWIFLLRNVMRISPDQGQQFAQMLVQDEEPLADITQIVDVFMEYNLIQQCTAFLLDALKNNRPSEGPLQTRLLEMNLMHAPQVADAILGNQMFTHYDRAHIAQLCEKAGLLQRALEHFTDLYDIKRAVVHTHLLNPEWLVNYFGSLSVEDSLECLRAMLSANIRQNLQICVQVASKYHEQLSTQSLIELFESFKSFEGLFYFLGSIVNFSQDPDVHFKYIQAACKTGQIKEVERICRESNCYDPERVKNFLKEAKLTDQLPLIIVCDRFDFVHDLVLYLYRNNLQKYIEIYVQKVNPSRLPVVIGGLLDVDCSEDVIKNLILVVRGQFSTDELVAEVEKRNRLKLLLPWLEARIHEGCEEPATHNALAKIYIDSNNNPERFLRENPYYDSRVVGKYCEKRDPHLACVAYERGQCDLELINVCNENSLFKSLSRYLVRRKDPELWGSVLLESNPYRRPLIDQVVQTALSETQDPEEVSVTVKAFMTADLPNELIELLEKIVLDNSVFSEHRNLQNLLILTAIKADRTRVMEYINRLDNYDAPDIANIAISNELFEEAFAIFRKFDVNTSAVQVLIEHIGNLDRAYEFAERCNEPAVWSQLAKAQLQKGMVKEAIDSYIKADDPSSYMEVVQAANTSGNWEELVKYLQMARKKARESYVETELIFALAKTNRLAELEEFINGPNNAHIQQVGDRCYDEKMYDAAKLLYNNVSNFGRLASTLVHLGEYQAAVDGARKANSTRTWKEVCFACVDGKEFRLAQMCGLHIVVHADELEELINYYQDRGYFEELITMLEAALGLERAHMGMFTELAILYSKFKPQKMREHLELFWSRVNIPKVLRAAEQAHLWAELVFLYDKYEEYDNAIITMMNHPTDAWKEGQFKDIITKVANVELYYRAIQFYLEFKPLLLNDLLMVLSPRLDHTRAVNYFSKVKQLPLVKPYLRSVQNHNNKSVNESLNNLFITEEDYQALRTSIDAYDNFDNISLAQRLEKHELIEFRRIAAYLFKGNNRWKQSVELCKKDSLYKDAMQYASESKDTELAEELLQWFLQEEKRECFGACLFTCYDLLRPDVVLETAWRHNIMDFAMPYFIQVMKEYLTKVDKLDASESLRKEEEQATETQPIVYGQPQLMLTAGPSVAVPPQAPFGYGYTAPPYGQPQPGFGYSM
UniProt P85299, whole entry: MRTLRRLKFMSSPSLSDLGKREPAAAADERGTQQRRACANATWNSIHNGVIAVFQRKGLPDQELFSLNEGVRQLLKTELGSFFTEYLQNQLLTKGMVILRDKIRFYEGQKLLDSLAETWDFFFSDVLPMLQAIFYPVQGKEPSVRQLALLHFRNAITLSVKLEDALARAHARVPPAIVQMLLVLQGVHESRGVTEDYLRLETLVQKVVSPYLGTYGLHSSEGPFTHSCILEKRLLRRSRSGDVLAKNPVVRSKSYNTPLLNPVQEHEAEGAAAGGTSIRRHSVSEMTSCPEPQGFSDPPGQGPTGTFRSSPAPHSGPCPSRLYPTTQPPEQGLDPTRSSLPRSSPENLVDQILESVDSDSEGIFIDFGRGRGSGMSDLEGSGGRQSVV
UniProt Q01433: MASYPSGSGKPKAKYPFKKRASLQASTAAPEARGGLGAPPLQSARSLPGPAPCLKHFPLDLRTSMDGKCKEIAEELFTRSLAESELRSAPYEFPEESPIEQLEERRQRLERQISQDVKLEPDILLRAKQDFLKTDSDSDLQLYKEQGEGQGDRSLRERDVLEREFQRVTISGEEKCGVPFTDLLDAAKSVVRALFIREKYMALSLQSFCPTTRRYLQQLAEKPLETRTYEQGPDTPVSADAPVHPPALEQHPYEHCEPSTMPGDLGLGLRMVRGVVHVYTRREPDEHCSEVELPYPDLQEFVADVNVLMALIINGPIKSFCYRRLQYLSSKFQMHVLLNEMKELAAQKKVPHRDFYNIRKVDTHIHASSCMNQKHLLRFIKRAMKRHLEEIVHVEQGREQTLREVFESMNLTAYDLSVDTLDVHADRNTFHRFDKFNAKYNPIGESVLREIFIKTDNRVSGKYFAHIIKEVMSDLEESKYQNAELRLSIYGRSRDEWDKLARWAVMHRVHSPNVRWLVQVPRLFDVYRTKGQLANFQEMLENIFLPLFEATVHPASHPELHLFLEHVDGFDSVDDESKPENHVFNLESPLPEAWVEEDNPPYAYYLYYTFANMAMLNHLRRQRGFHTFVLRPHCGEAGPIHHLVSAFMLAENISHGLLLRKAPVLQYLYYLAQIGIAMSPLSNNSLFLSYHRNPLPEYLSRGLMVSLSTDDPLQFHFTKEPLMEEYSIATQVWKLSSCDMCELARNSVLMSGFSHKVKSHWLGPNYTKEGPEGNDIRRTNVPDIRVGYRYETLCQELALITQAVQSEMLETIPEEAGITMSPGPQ
UniProt Q04725: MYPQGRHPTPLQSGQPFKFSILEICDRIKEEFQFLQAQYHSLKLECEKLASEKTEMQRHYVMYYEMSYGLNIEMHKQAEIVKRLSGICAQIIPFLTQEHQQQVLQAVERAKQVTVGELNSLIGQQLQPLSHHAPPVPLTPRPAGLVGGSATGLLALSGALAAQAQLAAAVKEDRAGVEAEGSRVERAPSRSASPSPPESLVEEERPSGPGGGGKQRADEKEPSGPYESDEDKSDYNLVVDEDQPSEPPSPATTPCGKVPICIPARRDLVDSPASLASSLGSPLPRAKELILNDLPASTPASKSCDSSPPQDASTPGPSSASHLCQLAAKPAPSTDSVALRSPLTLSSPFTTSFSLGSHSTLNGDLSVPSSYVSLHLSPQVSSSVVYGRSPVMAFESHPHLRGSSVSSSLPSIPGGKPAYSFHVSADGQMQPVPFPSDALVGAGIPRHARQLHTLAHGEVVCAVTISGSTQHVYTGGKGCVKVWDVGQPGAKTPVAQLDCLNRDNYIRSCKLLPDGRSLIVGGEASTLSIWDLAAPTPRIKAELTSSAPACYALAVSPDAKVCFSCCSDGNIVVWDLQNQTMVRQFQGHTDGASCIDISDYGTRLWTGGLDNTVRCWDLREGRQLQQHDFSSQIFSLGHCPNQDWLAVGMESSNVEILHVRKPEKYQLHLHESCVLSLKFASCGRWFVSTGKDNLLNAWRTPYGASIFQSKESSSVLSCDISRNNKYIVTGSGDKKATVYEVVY
UniProt Q07666, whole entry: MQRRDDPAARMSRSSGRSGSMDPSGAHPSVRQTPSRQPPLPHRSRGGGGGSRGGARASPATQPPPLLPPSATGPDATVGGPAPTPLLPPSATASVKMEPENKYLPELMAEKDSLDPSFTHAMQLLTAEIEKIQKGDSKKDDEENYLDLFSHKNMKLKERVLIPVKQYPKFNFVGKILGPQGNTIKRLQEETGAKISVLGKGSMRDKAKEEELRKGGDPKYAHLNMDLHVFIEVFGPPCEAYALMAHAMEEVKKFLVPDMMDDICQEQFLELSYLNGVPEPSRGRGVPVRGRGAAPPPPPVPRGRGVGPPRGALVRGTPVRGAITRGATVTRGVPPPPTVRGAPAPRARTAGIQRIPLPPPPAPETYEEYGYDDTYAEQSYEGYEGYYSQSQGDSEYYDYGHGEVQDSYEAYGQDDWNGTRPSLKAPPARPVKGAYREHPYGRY
UniProt Q08043, whole entry: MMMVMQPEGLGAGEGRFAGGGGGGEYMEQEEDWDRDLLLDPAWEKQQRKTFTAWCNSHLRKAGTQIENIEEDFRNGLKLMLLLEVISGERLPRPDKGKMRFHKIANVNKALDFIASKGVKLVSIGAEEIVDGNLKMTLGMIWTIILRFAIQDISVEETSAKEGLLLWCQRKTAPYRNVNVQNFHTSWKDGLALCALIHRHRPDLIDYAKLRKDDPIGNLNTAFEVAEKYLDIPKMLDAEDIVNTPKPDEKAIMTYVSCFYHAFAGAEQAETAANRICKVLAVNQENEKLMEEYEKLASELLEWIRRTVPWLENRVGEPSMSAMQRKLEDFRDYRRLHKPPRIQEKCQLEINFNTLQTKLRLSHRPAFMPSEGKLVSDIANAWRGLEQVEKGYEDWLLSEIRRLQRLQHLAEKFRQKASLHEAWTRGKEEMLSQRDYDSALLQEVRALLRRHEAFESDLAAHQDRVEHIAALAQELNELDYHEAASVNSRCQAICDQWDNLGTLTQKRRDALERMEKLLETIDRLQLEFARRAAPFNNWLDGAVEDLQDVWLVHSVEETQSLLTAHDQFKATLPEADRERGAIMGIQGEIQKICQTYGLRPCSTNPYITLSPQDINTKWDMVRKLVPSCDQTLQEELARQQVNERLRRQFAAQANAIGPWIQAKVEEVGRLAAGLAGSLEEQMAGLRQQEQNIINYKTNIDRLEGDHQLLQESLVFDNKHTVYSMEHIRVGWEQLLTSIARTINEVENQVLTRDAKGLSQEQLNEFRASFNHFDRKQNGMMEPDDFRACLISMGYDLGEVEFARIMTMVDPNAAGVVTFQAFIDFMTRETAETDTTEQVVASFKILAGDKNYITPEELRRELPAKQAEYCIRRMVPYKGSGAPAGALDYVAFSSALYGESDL

compound: CN[C@@H]1C[C@H]2O[C@@](C)([C@@H]1OC)n1c3ccccc3c3c4c(c5c6ccccc6n2c5c31)C(=O)NC4 [staurosporine]; assay: log2 fold change of tryptic peptide abundance, ligand vs vehicle (limited proteolysis) (log2 ratio); higher = more trypsin-susceptible (destabilized); settings: ligand concentration: 20 uM; sample: K562 cleared lysate; digestion: 4 min, 22 C (HT-PELSA RT4min, Orbitrap Astral)

Row | Target | log2 fold change
1 | OCRL (peptide sequence: FEIPDEEHCLK, peptide start residue: 96) (UniProt Q01968) | -0.679
2 | EP300 (peptide sequence: QWHEDITQDLR, peptide start residue: 570) (UniProt Q09472) | -0.691
3 | TLE3 (peptide sequence: KAEEKDSLSR, peptide start residue: 228) (UniProt Q04726) | 0.487
4 | AMPD3 (peptide sequence: FSLHEMLNEMSEFK, peptide start residue: 285) (UniProt Q01432) | 0.526
5 | EWSR1 (peptide sequence: AAVEWFDGKDFQGSK, peptide start residue: 425) (UniProt Q01844) | -0.14
6 | GSTM4 (peptide sequence: FLPKPLYTR, peptide start residue: 203) (UniProt Q03013) | 0.234
7 | HTD2 (peptide sequence: KTVMEGWVK, peptide start residue: 151) (UniProt P86397) | 0.191
8 | SPTBN1 (peptide sequence: EKLTGLHK, peptide start residue: 1353) (UniProt Q01082) | 0.58
9 | IRF9 (peptide sequence: YKEGDTGGPAVWK, peptide start residue: 69) (UniProt Q00978) | -0.29
10 | GABPB1 (peptide sequence: AGQDDEVR, peptide start residue: 16) (UniProt Q06547) | 0.193
11 | APBA1 (peptide sequence: MMQAQEAVSR, peptide start residue: 394) (UniProt Q02410) | 0.166
12 | PAK1 (peptide sequence: SVIEPLPVTPTR, peptide start residue: 204) (UniProt Q13153) | 0.0207
13 | SET (peptide sequence: SGKDLTKR, peptide start residue: 175) (UniProt Q01105) | 0.213
14 | STX4 (peptide sequence: NILSSADYVER, peptide start residue: 244) (UniProt Q12846) | -0.146
15 | UniProt Q12798 (peptide sequence: LFDDDETGKISFK, peptide start residue: 112) | -0.3
16 | CAMSAP2 (peptide sequence: TAFLTVVK, peptide start residue: 796) (UniProt Q08AD1) | 0.622
17 | SOX4 (peptide sequence: HMADYPDYK, peptide start residue: 100) (UniProt Q06945) | 0.307
18 | GBE1 (peptide sequence: KGNNESYHYAR, peptide start residue: 554) (UniProt Q04446) | -0.135
19 | EML5 (peptide sequence: QVYKEDLPQLK, peptide start residue: 644) (UniProt Q05BV3) | 0.0513
20 | KIF1A (peptide sequence: KTDFIPYR, peptide start residue: 300) (UniProt Q12756) | 0.505

Row | Target | log2 fold change
21 | CLTC (peptide sequence: VSQPIEGHAASFAQFK, peptide start residue: 190) (UniProt Q00610) | -0.573
22 | UniProt Q0P6D6 (peptide sequence: DQNFLSR, peptide start residue: 476) | -0.232
23 | EIF2B5 (peptide sequence: WCRPTSLNVVR, peptide start residue: 111) (UniProt Q13144) | -0.504
24 | PPP1R8 (peptide sequence: RVFLIDLNSTHGTFLGHIR, peptide start residue: 82) (UniProt Q12972) | -0.425
25 | MVK (peptide sequence: VDLSLPNIGIK, peptide start residue: 49) (UniProt Q03426) | 0.144
26 | CSTF3 (peptide sequence: IPNTVEEAVR, peptide start residue: 648) (UniProt Q12996) | 0.375
27 | HSF1 (peptide sequence: RKIPLMLNDSGSAHSMPK, peptide start residue: 207) (UniProt Q00613) | 0.445
28 | UniProt P85299 (peptide sequence: SSPAPHSGPCPSR, peptide start residue: 309) | 0.951
29 | AMPD2 (peptide sequence: HFPLDLR, peptide start residue: 110) (UniProt Q01433) | 0.106
30 | TFCP2 (peptide sequence: LTRDDVIQICGPADGIR, peptide start residue: 360) (UniProt Q12800) | 0.111
31 | TLE2 (peptide sequence: VPICIPAR, peptide start residue: 258) (UniProt Q04725) | -0.237
32 | KHDRBS1 (peptide sequence: ILGPQGNTIKR, peptide start residue: 176) (UniProt Q07666) | 0.137
33 | EXOSC9 (peptide sequence: MKETPLSNCERR, peptide start residue: 1) (UniProt Q06265) | 0.232
34 | TFAM (peptide sequence: NLSDSEKELYIQHAKEDETR, peptide start residue: 191) (UniProt Q00059) | -0.303
35 | FANCC (peptide sequence: NMVLSLASELR, peptide start residue: 152) (UniProt Q00597) | -0.0898
36 | CALCOCO2 (peptide sequence: LVQGDQDKTEQLEQLKK, peptide start residue: 247) (UniProt Q13137) | 0.279
37 | TOP2B (peptide sequence: KTSKTTSK, peptide start residue: 1563) (UniProt Q02880) | 0.227
38 | SPIRE1 (peptide sequence: ALDYGLKENEER, peptide start residue: 136) (UniProt Q08AE8) | -0.219
39 | UniProt Q08043 (peptide sequence: KAGTQIENIEEDFR, peptide start residue: 47) | 0.453
40 | TARDBP (peptide sequence: FGGNPGGFGNQGGFGNSR, peptide start residue: 276) (UniProt Q13148) | -0.438

Reformatted in CSV form: entries from further up.
Row,Target,log2 fold change
12,"PAK1 (peptide sequence: SVIEPLPVTPTR, peptide start residue: 204) (UniProt Q13153)",0.0207
18,"GBE1 (peptide sequence: KGNNESYHYAR, peptide start residue: 554) (UniProt Q04446)",-0.135
